Patent US5750413 (dated 1998)

Assay: peptide synthesis
Conditions: late stage modification step

Substance	step yield [%]
[(3-(R)-Methyl-5-allyl-2-tetrahydrofuranyl)sarcosyl]^1 [Thr]^2 cyclosporine	73.6
[O-(N-(2-BOC-aminoethyl)aminosuccinyl)Thr]^2 cyclosporine	93
